# PubChem BioAssay AID2685 (National Center for Advancing Translational Sciences (NCATS), 2010)
# In all, about 320,000 compounds went through this assay and about 2,100 (0.66%) were called active. Inconclusive means that the source gave no clear call. Such entries were picked first, then a sample of the others. Calls come from the whole dose curve; as a rule, active = well fitted inhibition curve with a large enough effect in the signal ratio, with a control signal flat (not every such curve was filed as active); inconclusive = small, poorly fitted or top-dose-only effect, or effect the other way, or a change in a side signal; inactive = flat fitted curve, though single readings scatter; the % refers to the signal ratio. A potency beside an inconclusive call is a rough fit, not a confirmed value.
# Test: qHTS Assay for Lipid Storage Modulators in Drosophila S3 Cells
# Conditions: BODIPY lipid droplet fluorescence, 18-24 h, cells fed with added oleic acid; lipid storage change, negative = inhibition: at 46.1 µM (top of the series) unless noted
# Summary of the method: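 Laser-scanning cytometry quantifies lipid droplet accumulation (500–530 nm total intensity; droplet/cell object ratio) in oleic acid-fed (400 uM added) Drosophila S3 cells treated with a concentration series. 20 uM Triacsin C defined 100% inhibition.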
# % is set by controls: 0 for no effect and ±100 for the full control effect; potency is the fitted concentration of half-maximal effect.
SMILES,"lipid storage change, negative = inhibition",Potency
COc1cc(NC(=O)C2CC(=O)N(CCc3ccccc3)C2)cc(OC)c1 (stereo unspecified),inconclusive,
COCCOC(=O)C1=C(C)OC(N)=C(C#N)C1c1cc2cccc(C)c2nc1Cl (stereo unspecified),inconclusive: -32.8%,
COc1cccc(/C=N/NC(=O)Cn2cnc3c2c(=O)n(C)c(=O)n3C)c1,inconclusive: 12.5%,
COCC(C)NS(=O)(=O)c1ccc(C)cc1 (stereo unspecified),,"inconclusive: 23.1 µM [falling, partial curve]"
COc1ccc(S(=O)(=O)N(CCCN2CCOCC2)Cc2cccc(OC)c2OC)cc1,inconclusive: -15.7%,
Cc1ccc(C(=O)NCC(=O)NCCCc2ccccc2)cc1,inconclusive: 3.01%,
CCOC(=O)C1=C(C(F)(F)F)Nc2ncnn2C1c1cc(OC)ccc1OC (stereo unspecified),inconclusive: 18.1%,
COc1ccc(NC(=O)CCSc2ccc(C)cc2)cc1S(=O)(=O)Nc1ccccc1Cl,inconclusive: -1.09%,
O=c1cnnc(Nc2ccc(Cl)c(C(F)(F)F)c2)[nH]1,inconclusive: 1.15%,
CCOC(=O)c1c(C)[nH]c(C)c1C(=O)CN1C(=O)NC2(CCCCCC2)C1=O,,"inconclusive: 29.1 µM [falling, single point]"
COCCN1C(=O)C(=O)/C(=C(/O)c2ccc(S(=O)(=O)N3CCCCC3)cc2)C1c1ccc(O)c(OC)c1 (stereo unspecified),,"inconclusive: 29.1 µM [activator, single point]"
COc1ccc(NC(=O)Cn2c(C)csc2=O)c(OC)c1,,"inconclusive: 23.1 µM [activator, partial curve, poor fit]"
COc1ccc(N2CCN(c3ccc(N4C(=O)CC(C)C4=O)cc3[N+](=O)[O-])CC2)cc1 (stereo unspecified),inconclusive: -14.4%,
Cc1ccc2c(CN(C)Cc3cccc(F)c3)cc(=O)oc2c1C,inconclusive: 17.5%,
Cn1c(=NC(=O)COc2ccccc2)sc2cccc(F)c21,inconclusive: 15.9%,
COC(=O)[C@H](C)NC(=O)Nc1ccc(OC)c(OC)c1,,"inconclusive: 13 µM [falling, partial curve]"
CCOC(=O)N1CCC(N2Cc3cccc(C(=O)NCc4ccc(OC)cc4)c3C2=O)CC1,,"inconclusive: 10.3 µM [rising, partial curve]"
C=CCn1c(SCc2c(C)noc2C)nc2ccccc2c1=O,,"inconclusive: 2.06 µM [rising, full curve]"
O=C(CCN1C(=O)/C(=C/c2ccccc2)SC1=S)N1CCCCCC1,inconclusive: 38.2%,
Cc1ccc(S(=O)(=O)NC2CC(C)(C)NC(C)(C)C2)cc1C,,"inconclusive: 23.1 µM [activator, single point]"
O=C(Nc1ccc(Cn2cccn2)cc1)c1ccc(COc2ccccc2Br)cc1,,"inconclusive: 32.6 µM [falling, single point]"
COc1ccc(Nc2nc(-c3ccccc3)nc3ccccc23)c(OC)c1,,"inconclusive: 0.731 µM [rising, full curve]"
Cc1nc2c(C(=O)NCc3cccs3)cnn2c(C)c1Cc1ccccc1,inactive: 7.94%,
COc1ccc(NC(=O)CSc2nnnn2-c2ccccc2OC)c(OC)c1,inconclusive: -13.7%,
COc1ccc(S(=O)(=O)CCC(=O)NCCc2ccc(S(N)(=O)=O)cc2)cc1,,"inconclusive: 23.1 µM [falling, single point]"
COc1ccc(-n2ncc(S(=O)(=O)c3ccccc3)c2-c2ccc(Cl)cc2)cc1,inconclusive: 32%,

SMILES,"lipid storage change, negative = inhibition",Potency
CC(C)c1ccc(C(O)Cc2nc3ccccc3n2C)cc1 (stereo unspecified),inconclusive: 5.15%,
Cc1ccc2c(c1)N(S(=O)(=O)c1ccc(CN3C(=O)c4cccnc4C3=O)cc1)CCO2,inconclusive: -13.6%,
C=CCn1c(CNc2ccc(C)cc2)nnc1SCC(=O)N/N=C/c1ccc(O)cc1O,inconclusive: 14.7%,
CNC(=O)NC(=O)CSc1nc2ccccc2n1CCOC,inconclusive: 19.2%,
CC(C)CCCC(C)NC(=O)c1cc(S(=O)(=O)N2CCCCC2)ccc1N1CCOCC1 (stereo unspecified),,"inconclusive: 0.0184 µM [activator, full curve, poor fit]"
Cc1ccccc1C(=O)Oc1ccc(-c2csnn2)cc1,inconclusive: 9.71%,
CC1Cc2nc(SCC(=O)Nc3ccc(F)cc3F)n(C)c(=O)c2S1 (stereo unspecified),inconclusive: 43.6%,
CC1CCCN(Cc2c(O)ccc3c(=O)c(-c4ccc(Cl)cc4)coc23)C1 (stereo unspecified),inconclusive: 91%,
C=CCn1c(CCNC(=O)c2ccco2)nc2ccccc21,inactive: -5.61%,
Cc1ccc(S(=O)(=O)N2CCC(C(=O)OC(C)C(=O)NCc3ccc4c(c3)OCO4)CC2)cc1 (stereo unspecified),,"inconclusive: 4.11 µM [falling, single point]"
CCc1ccc(OCC(=O)Nc2nnc(-c3ccco3)s2)cc1,,"inconclusive: 29.1 µM [activator, single point]"
NS(=O)(=O)c1ccc(NC(=O)Cc2cccs2)cc1,,"inconclusive: 29.1 µM [activator, single point]"
COc1cnc(-c2ccccc2)nc1Oc1cccc(C)c1,inconclusive: 28.7%,
Cc1ccc(Cl)c(OCC(=O)Nc2cc(S(=O)(=O)N3CCOCC3)ccc2N2CCCC2)c1,inconclusive: 17.2%,
COc1ccc(C(=O)Nc2cc(-c3nn4c(C)nnc4s3)ccc2C)cc1,,"inconclusive: 0.461 µM [activator, single point]"
CC1CCCN(C(=O)C2CCN(C(=O)Nc3ccccc3)CC2)C1 (stereo unspecified),,"inconclusive: 1.64 µM [falling, partial curve]"
Cc1nc2ccccc2cc1C(=O)NCc1ccc(F)cc1,inconclusive: -34.5%,
COC(=O)NC(NC(=S)Nc1ccc([N+](=O)[O-])cc1)C(Cl)(Cl)Cl (stereo unspecified),,"inconclusive: 29.1 µM [falling, single point]"
CCOc1ccccc1C1C(C(N)=O)=C(C)Nc2nc(-c3ccccc3Cl)nn21 (stereo unspecified),,"inconclusive: 8.2 µM [activator, partial curve]"
CCc1ccc(-c2cc3c(=O)n(CC(=O)NCCCN4CCC(Cc5ccccc5)CC4)nc(C)n3n2)cc1,,"inconclusive: 1.46 µM [activator, full curve]"
COc1cc(Br)cc(/C=N/N(CCO)C2=NS(=O)(=O)c3ccccc32)c1OC,inconclusive: -29.6%,
O=S(=O)(NCCc1ccccc1)c1cccc(S(=O)(=O)N2CCOCC2)c1,inconclusive: 16.7%,
CCCN1C2CCCC1CC(NC(=O)c1cccc(OC)c1)C2 (stereo unspecified),inconclusive: 50%,
COc1cc(/C=N/Nc2nc3ccccc3[nH]2)cc(Br)c1OCC(=O)N(C)C,inconclusive: 4.91%,
COc1cccc(CN(C(=O)COc2ccccc2[N+](=O)[O-])C2CCS(=O)(=O)C2)c1 (stereo unspecified),,"inconclusive: 3.66 µM [falling, partial curve, poor fit]"
COc1ccc(C(C(=O)NCC2CCCO2)N(C(=O)Cn2nnc3ccccc32)c2ccc(NC(C)=O)cc2)cc1OC (stereo unspecified),inconclusive: -8.62%,

# A draw from above in order of formula weight, high to low:
SMILES,"lipid storage change, negative = inhibition",Potency
COCCOC(=O)C1=C(C)OC(N)=C(C#N)C1c1cc2cccc(C)c2nc1Cl (stereo unspecified),inconclusive: -32.8%,
COc1cccc(/C=N/NC(=O)Cn2cnc3c2c(=O)n(C)c(=O)n3C)c1,inconclusive: 12.5%,
Cc1ccc(S(=O)(=O)NC2CC(C)(C)NC(C)(C)C2)cc1C,,"inconclusive: 23.1 µM [activator, single point]"
COc1ccc(NC(=O)Cn2c(C)csc2=O)c(OC)c1,,"inconclusive: 23.1 µM [activator, partial curve, poor fit]"
COc1cnc(-c2ccccc2)nc1Oc1cccc(C)c1,inconclusive: 28.7%,

# (listing goes on)

SMILES,"lipid storage change, negative = inhibition",Potency
O=C(O)Cn1c(SCc2ccccc2)nc2ccccc21,,"inconclusive: 0.58 µM [falling, partial curve]"
NC(=O)CCCc1nc(-c2ccccc2Cl)no1,inactive: -1.99%,
COc1ccccc1C(=O)NCCC(=O)N(C)Cc1cccnc1,,"inconclusive: 1.3 µM [activator, full curve, poor fit]"
CCOC(=O)N1CCN(CC(=O)Nc2cccc(Br)c2)CC1,inconclusive: -34.5%,
Cc1cccc(NC(=S)NCCCN2CCOCC2)c1,,"inconclusive: 6.51 µM [activator, single point]"
Cc1ccc2[nH]c(C(=O)N/N=C/c3ccccc3O)c(C)c2c1,,"inconclusive: 29.1 µM [falling, single point]"
Clc1ccc(Cl)c(-c2nc(-c3ccncc3)no2)c1,inconclusive: 28.4%,
CCO/C(C)=C1\C(=O)Nc2ccccc21,inconclusive: -22.9%,
CCOc1ccc2c(c1)c(N=Nc1cccc(C(=O)O)c1)c(O)n2C,inconclusive: 31.5%,
C=CCNc1nc(C(=O)OCC(=O)Nc2cc(S(C)(=O)=O)ccc2Cl)cs1,inconclusive,
O=C(Nc1n[nH]c(=S)s1)c1ccco1,inconclusive: 16.5%,
O=C(CN1CCOCC1)Nc1ccccc1F,inconclusive: 52.4%,
OCCC1CN(Cc2cnn(-c3ccc(F)cc3)c2)CCN1Cc1ccsc1 (stereo unspecified),inconclusive: 11.5%,
Cc1cc(/C=C(\C#N)C(=O)NC2CCCCCC2)c(C)n1C,inconclusive: -4.52%,
COc1ccc(C)cc1S(=O)(=O)N1CCN(c2ccccc2)CC1,inconclusive: 15.3%,
Cc1nc2ccccc2c(=O)n1/N=C/c1ccc(O)cc1,inconclusive: -7.06%,
O=C(NCCc1ccccc1)c1cccc(S(=O)(=O)N2CCCCC2)c1,inconclusive: -23.2%,
COc1ccc(/C=N/n2c(C)nnc2C)c(OC)c1OC,inconclusive: -9.42%,
S=C(Nc1ccccc1)N1CCn2c1nc1ccccc12,,"inconclusive: 1.3 µM [activator, partial curve]"
CCC(C)NC(=O)C1CC(c2cccc(OC)c2)=NO1 (stereo unspecified),inconclusive: -3.79%,
Cc1onc(-c2ccccc2)c1C(=O)NCCc1ccc(Cl)cc1,,"inconclusive: 2.59 µM [falling, partial curve]"
O=C(Cc1ccc(Br)cc1)N1CCc2ccccc2C1,inconclusive: -87.7%,
O=C1NC(=Nc2ccccc2)SC1Cc1ccccc1 (stereo unspecified),inconclusive: -25.4%,
COc1ccc(-c2nc3cnccn3c2NCc2ccccc2)cc1SC1CCCCC1,,"inconclusive: 16.4 µM [cytotoxic, partial curve, poor fit]"
